PubChem BioAssay AID1259308 | NCATS – 2017
In all, the deposit lists about 59,000 reagents; below is an unselected part. Over the whole deposit, about 1,510 (2.6%) were called active. 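Calls use total luciferase alone and ignore viability, so some active siRNAs may act by altering cell number.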 Unmarked entries are inactive.

Test: 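Genes whose loss raises luciferase production in HEK293 cells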 (primary screen)
Cells: human HEK293 embryonic kidney cells stably expressing firefly luciferase (HEK-CMV-Luc2-Hygro)
Reagents: single siRNA against human genes, 0.8 pmol siRNA per well
Duration: 72 h
Detection: 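Reporter luminescence and viable-cell signal on separate replicate plates, given as percent of non-targeting control and median/MAD z-scores, plus per-cell luciferase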
Direction: total luciferase, z-score and total luciferase, % of control: higher = more reporter protein produced; luciferase per cell, z-score: higher = more reporter output per viable cell; viable cells, % of control: higher = more viable cells
Rule for the call: 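Active when the median/MAD z-score for overall luciferase is greater than 3; a gene was taken forward for validation with new siRNAs if at least two of its three siRNAs passed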
Calls: active = raised luciferase; inactive = no rise

The first 4 records as a preview:
gene	PubChem SID	total luciferase, z-score	total luciferase, % of control	luciferase per cell, z-score	viable cells, % of control
CLPSL2 (GeneID 389383)	SID160766182	-0.0365	81.2	0.766	74.1
CLPSL2 (GeneID 389383)	SID160766183	-1.03	61.4	-0.367	75.6
CLPSL2 (GeneID 389383)	SID160766184	-0.725	67.5	-0.784	92.7
FEM1A (GeneID 55527)	SID160743755	1.02	102	0.833	91.7

Results, repeating the preview:
gene	PubChem SID	total luciferase, z-score	total luciferase, % of control	luciferase per cell, z-score	viable cells, % of control
CLPSL2 (GeneID 389383)	SID160766182	-0.0365	81.2	0.766	74.1
CLPSL2 (GeneID 389383)	SID160766183	-1.03	61.4	-0.367	75.6
CLPSL2 (GeneID 389383)	SID160766184	-0.725	67.5	-0.784	92.7
FEM1A (GeneID 55527)	SID160743755	1.02	102	0.833	91.7
FEM1A (GeneID 55527)	SID160743756	-1.84	45.3	-1.75	80.3
FEM1A (GeneID 55527)	SID160743758	0.42	90.2	0.151	96.9
CHRDL2 (GeneID 25884)	SID160737173	-0.761	66.8	-0.515	85.4
CHRDL2 (GeneID 25884)	SID160737174	1.34	109	1.21	88.1
CHRDL2 (GeneID 25884)	SID160737175	1.24	107	1.11	88.9
MTHFS (GeneID 10588)	SID160728801	0.467	91.2	-0.486	116
MTHFS (GeneID 10588)	SID160728802	-0.355	74.8	-0.202	88.2
MTHFS (GeneID 10588)	SID160728803	-1.45	53.1	-1.38	85.3
SFXN5 (GeneID 94097)	SID160754612	1.12	104	0.565	100
SFXN5 (GeneID 94097)	SID160754613	-0.783	66.3	-0.686	88.8
SFXN5 (GeneID 94097)	SID160754614	-0.422	73.5	-0.555	95.1
DDX60 (GeneID 55601)	SID160743867	-0.193	78	-0.4	96.9
DDX60 (GeneID 55601)	SID160743868	-1.15	59	-1.3	92.7
DDX60 (GeneID 55601)	SID160743869	0.0109	82.1	-0.00628	91.9
B4GALT3 (GeneID 8703)	SID160720629	-0.573	70.5	-0.272	84.6
B4GALT3 (GeneID 8703)	SID160720630	-1.15	59.1	-1.22	91
B4GALT3 (GeneID 8703)	SID160720631	-0.0702	80.5	-0.444	101
KLRG2 (GeneID 346689)	SID160733122	2.19	125	1.38	97.5
KLRG2 (GeneID 346689)	SID160764923	-0.645	69	-0.682	92.3
KLRG2 (GeneID 346689)	SID160764924	-0.792	66.1	-0.674	88.3
UBE2K (GeneID 3093)	SID160774946	1.95	121	1.99	79.7
UBE2K (GeneID 3093)	SID160774947	-0.623	69.5	-0.807	96.1
UBE2K (GeneID 3093)	SID160774948	-0.656	68.8	-0.318	83.6
USP46 (GeneID 64854)	SID160748079	0.947	101	0.677	94.2
USP46 (GeneID 64854)	SID160748080	-1.03	61.3	-1.49	101
USP46 (GeneID 64854)	SID160748081	2.78	137	2	90.4
SSU72P1 (GeneID 286528)	SID160763874	-0.0179	81.5	0.146	87.7
SSU72P1 (GeneID 286528)	SID160763875	-0.175	78.4	-0.56	102
SSU72P1 (GeneID 286528)	SID160763877	0.0155	82.2	-0.217	97.2
ABAT (GeneID 18)	SID160776885	0.325	88.4	-0.0303	99.5
ABAT (GeneID 18)	SID160776894	-1.13	59.4	-1.19	90.9
ABAT (GeneID 18)	SID160776904	-0.368	74.6	-0.545	96.2
NDUFA10 (GeneID 4705)	SID160758510	-0.101	79.9	-0.349	97.8
NDUFA10 (GeneID 4705)	SID160759562	-0.456	72.8	-0.433	91.2
NDUFA10 (GeneID 4705)	SID160760603	-1.23	57.4	-1.24	89
